Here are results for 35 substances from patent US5204326 (dated 1993).

* marks the point of attachment. Tos = Cc1ccc(S(=O)(=O)*)cc1; ClZ = O=C(OCc1ccccc1Cl)*; Cbz = O=C(OCc1ccccc1)*; Boc = CC(C)(C)OC(=O)*; OcHex = C1CCC(O*)CC1; OBn = c1ccc(CO*)cc1; Bn = c1ccc(C*)cc1; NHNH2 = NN*

A short description of this data set: general procedure: solution-phase peptide synthesis; WSC/HOBT or WSC/HONB; active esters (OSu, ONp); azide method.

Turning to Boc-D(OcHex)VGAGT(Bn)P-NH2, the step yield (coupling step) is reported as 83.0%. In turn, Boc-GAS(Bn)L-NHNH2 displayed a step yield (late stage modification step) of 89.2%. Turning to Boc-GAS(Bn)L-OEt, the step yield (coupling step) came out at 77.8%. The same measure, in the same setting: with Boc-GAS(Bn)LS(Bn)T(Bn)E-OBn the figure was 76.8%. As for Boc-GS(Bn)NL-NHNH2, the step yield (late stage modification step) was determined as 79.0%. For “Boc-Gln-Glu(OcHex)-Leu-His(Tos)-Lys(Cl-Z)-Leu-Gln-Thr(Bzl)-Pro-Arg(Tos)-Thr(Bzl)-Asn -Thr(Bzl)-Gly-Ser(Bzl)-Gly-Thr(Bzl)-Pro-NH2”, the step yield (coupling step) was determined as 78.3%. Still for that read-out and setting: to “Boc-Gln-Glu(OcHex)-Leu-His(Tos)-Lys(Cl-Z)-Leu-Gln-Thr(Bzl)-Pro-Gln-Thr(Bzl)-Asn-Thr(Bzl) -Gly-Ser(Bzl)-Gly-Thr(Bzl)-Pro-NH2” belongs 85.0%.

Regarding “Boc-Gln-Thr(Bzl)-Tyr(Cl2 -Bzl)-Pro-Arg(Tos)-Thr(Bzl)-Asp(OcHex)-val-Gly-Ala-Gly-Thr(Bzl)-Pro -NH2”, the step yield (coupling step) stood at 97.7%.

Regarding “Boc-His(Tos)-Lys(Cl-Z)-Gln-Thr(Bzl)-Tyr(Cl2 -Bzl)-Pro-Arg(Tos)-Thr(Bzl)-Asp(OcHex)-Val-Gly-Ala -Gly-Thr(Bzl)-Pro-NH2”, for the setting “coupling step”, the step yield worked out at 91.0%. For “Boc-His(Tos)-Lys(Cl-Z)-Leu-Gln-Thr(Bzl)-Pro-Gln-Thr(Bzl)-Asn-Thr(Bzl)-Gly- Ser(Bzl)-Gly -Thr(Bzl)-Pro-NH2”, the step yield (coupling step) amounted to 94.0%. The same measure, in the same setting: to “Boc-His(Tos)-Lys(Cl-Z)-Leu-Gln-Thr(Bzl)-Tyr(Cl2 -Bzl)-Pro-Arg(Tos)-Thr(Bzl)-Asn-Thr(Bzl)-Gly-Ser(Bzl)-Gly-Thr(Bzl)-Pro -NH2” belongs 95.1%; to “Boc-K(Cbz)LS(Bn)QE(OcHex)LNK(ClZ)LQT(Bn)PQT(Bn)D(OcHex)VGAGT(Bn)P-NH2”, 88.0%. The substance “Boc-K(ClZ)LQT(Bn)PQT(Bn)NT(Bn)GS(Bn)GT(Bn)P-NH2” showed a step yield (coupling step) of 84.0%. Regarding “Boc-K(ClZ)LS(Bn)QE(OcHex)LHK(ClZ)LQT(Bn)PQT(Bn)D(OBn)VGAGT(Bn)P-NH2”, the step yield (coupling step) amounted to 92.0%. Same read-out and setting: to “Boc-K(ClZ)LS(Bn)QE(OcHex)LLK(ClZ)LQT(Bn)PR(Tos)T(Bn)NT(Bn)GS(Bn)GT(Bn)P-NH2” belongs 88.0%; to “Boc-K(ClZ)LS(Bn)QE(OcHex)LNK(ClZ)LQT(Bn)PR(Tos)T(Bn)D(OcHex)VGAGT(Bn)P-NH2”, 90.0%. On the same count and under the same terms, to “Boc-K(ClZ)LS(Bn)QE(OcHex)LQK(ClZ)LQT(Bn)PR(Tos)T(Bn)NT(Bn)GS(Bn)GT(Bn)P-NH2” belongs 90.6%; to “Boc-Lys(Cl-Z)-Gln-Thr(Bzl)-Tyr(Cl2 -Bzl)-Pro-Arg(Tos)-Thr(Bzl)-Asn-Thr(Bzl)-Gly-Ser(Bzl)-Gly -Thr(Bzl)-Pro-NH2”, 97.1%; to “Boc-Lys(Cl-Z)-Leu-Ser(Bzl)-Gln-Glu(OcHex)-Leu-His(Tos)-Lys(Cl-Z)-Gln-Thr(Bzl)-Tyr(Cl2 -Bzl) -Pro-Arg(Tos)-Thr(Bzl)-Asn-Thr(Bzl)-Gly-Ser(Bzl)-GLy-Thr(Bzl)-Pro-NH2”, 90.0%. For “Boc-Lys(Cl-Z)-Leu-Ser(Bzl)-Gln-Glu(OcHex)-Leu-His(Tos)-Lys(Cl-Z)-Leu-Gln-Thr(Bzl)-Pro -Arg(Tos)-Thr(Bzl)-Asn-Thr(Bzl)-Gly-Ser(Bzl)-Gly-Thr(Bzl)-Pro-NH2”, the step yield (coupling step) was 90.0%. Substance “Boc-Lys(Cl-Z)-Leu-Ser(Bzl)-Gln-Glu(OcHex)-Leu-His(Tos)-Lys(Cl-Z)-Leu-Gln-Thr(Bzl)-Pro -Gln-Thr(Bzl)-Asn-Thr(Bzl)-Gly-Ser(Bzl)-Gly-Thr(Bzl)-Pro-NH2” had a step yield (coupling step) of 74.9%.

“Boc-Lys(Cl-Z)-Leu-Ser(Bzl)-Gln-Glu(OcHex)-Leu-His(Tos)-Lys(Cl-Z)-Leu-Gln-Thr(Bzl)-Tyr (Cl2 -Bzl)-Pro-Arg(Tos)-Thr(Bzl)-Asn-Thr(Bzl)-Gly-Ser(Bzl)-Gly-Thr(Bzl)-Pro-NH2” had a step yield (coupling step) of 88.0%. On to “Boc-Lys(Z)-Leu-Ser(Bzl)-Gln-Glu(OcHex)-Leu-His(Tos)-Lys(Cl-Z)-Leu-Gln-Thr(Bzl)-Pro -Arg(Tos)-Thr(Bzl)-Asp(OcHex)-Val-Gly-Ala-Gly-Thr(Bzl)-Pro-NH2”, for which the step yield (coupling step) was determined as 95.0%.

Take “Boc-NK(ClZ)LQT(Bn)PQT(Bn)NT(Bn)GS(Bn)GT(Bn)P-NH2”: the step yield (coupling step) is 98.0%. On the same count and under the same terms, to Boc-NT(Bn)GS(Bn)GT(Bn)P-NH2 belongs 73.1%; to “Boc-QT(Bn)PR(Tos)T(Bn)NT(Bn)GS(Bn)GT(Bn)P-NH2”, 87.1%.

For the substance Boc-R(Tos)T(Bn)NT(Bn)GS(Bn)GT(Bn)P-NH2, the step yield (coupling step) turned out to be 70.5%. The same measure, in the same setting: to Boc-S(Bn)GT(Bn)P-NH2 belongs 75.9%; to “Boc-S(Bn)K(ClZ)LQT(Bn)PQT(Bn)NT(Bn)GS(Bn)GT(Bn)P-NH2”, 92.0%; to “Boc-S(Bn)QE(OcHex)LAK(ClZ)LQT(Bn)PR(Tos)T(Bn)NT(Bn)GS(Bn)GT(Bn)P-NH2”, 98.5%.

In turn, “Boc-S(Bn)QE(OcHex)LGK(ClZ)LQT(Bn)PR(Tos)T(Bn)NT(Bn)GS(Bn)GT(Bn)P-NH2” had a step yield (coupling step) of 99.0%.

For the setting “coupling step”, “Boc-S(Bn)QE(OcHex)LNK(ClZ)LQT(Bn)PR(Tos)T(Bn)D(OcHex)VGAGT(Bn)P-NH2” showed a step yield of 95.0%. The same measure, in the same setting: to “Boc-S(Bn)QE(OcHex)LS(Bn)K(ClZ)LQT(Bn)PR(Tos)T(Bn)NT(Bn)GS(Bn)GT(Bn)P-NH2” belongs 99.1%; to Boc-T(Bn)GS(Bn)GT(Bn)P-NH2, 77.7%. Substance “Boc-Thr(Bzl)-Tyr(Cl2 -Bzl)-Pro-Arg(Tos)-Thr(Bzl)-Asn-Thr(Bzl)-Gly-Ser(Bzl)-Gly-Thr(Bzl)-Pro-NH2” gave a step yield (coupling step) of 78.2%.
